# Results taken from publication PMC9184626.
# By UniProt entry, the sequences of proteins in these tests, tags left out. Where a name states a change or a piece, a line headed by the entry shows the natural chain unless it says otherwise. Residues count along the entry.
# UniProt P13597, residues 28-485: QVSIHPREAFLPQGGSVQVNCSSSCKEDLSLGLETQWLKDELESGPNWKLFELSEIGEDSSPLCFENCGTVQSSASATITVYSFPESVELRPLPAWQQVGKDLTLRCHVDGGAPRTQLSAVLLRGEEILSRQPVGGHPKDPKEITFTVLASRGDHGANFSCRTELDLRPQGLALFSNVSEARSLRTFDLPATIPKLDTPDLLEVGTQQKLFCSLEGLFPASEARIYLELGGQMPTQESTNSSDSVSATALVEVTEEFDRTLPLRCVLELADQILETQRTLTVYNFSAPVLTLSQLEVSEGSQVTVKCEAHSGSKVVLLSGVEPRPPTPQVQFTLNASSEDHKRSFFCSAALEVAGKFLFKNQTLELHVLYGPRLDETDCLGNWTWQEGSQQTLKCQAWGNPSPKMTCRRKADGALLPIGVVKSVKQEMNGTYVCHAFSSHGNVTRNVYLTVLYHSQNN
# UniProt P24063: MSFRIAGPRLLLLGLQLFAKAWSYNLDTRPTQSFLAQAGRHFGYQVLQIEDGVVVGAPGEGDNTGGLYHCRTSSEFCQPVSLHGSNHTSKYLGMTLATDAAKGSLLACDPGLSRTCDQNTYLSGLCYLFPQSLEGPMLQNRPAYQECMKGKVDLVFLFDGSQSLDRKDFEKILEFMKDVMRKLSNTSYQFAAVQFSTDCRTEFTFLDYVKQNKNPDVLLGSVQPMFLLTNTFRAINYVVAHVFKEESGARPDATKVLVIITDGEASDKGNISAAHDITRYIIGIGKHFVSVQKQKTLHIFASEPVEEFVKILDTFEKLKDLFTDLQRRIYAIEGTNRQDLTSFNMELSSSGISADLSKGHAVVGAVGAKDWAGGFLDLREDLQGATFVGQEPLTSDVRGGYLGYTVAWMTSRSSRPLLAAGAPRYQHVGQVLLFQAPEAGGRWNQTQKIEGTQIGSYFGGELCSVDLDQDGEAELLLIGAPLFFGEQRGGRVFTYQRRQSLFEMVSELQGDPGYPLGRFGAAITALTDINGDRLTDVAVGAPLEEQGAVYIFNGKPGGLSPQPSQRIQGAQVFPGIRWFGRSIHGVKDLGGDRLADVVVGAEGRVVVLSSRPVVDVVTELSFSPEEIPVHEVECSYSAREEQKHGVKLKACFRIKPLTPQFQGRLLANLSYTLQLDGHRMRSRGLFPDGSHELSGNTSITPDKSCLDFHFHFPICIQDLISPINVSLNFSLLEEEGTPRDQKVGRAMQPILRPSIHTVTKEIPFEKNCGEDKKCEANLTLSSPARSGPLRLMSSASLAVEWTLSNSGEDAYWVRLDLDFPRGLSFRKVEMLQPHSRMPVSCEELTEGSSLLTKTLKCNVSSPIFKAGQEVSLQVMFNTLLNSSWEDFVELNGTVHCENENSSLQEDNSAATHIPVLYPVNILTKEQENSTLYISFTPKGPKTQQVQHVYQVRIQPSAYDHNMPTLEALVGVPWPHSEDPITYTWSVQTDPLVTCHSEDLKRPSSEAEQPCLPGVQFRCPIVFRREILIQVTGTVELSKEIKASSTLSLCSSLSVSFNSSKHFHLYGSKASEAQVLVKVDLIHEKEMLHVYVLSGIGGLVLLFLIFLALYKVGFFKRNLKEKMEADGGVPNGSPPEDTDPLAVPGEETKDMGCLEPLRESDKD
# No constants are given. Whether binding was seen depends on the method and setting. Some results given as binding are weak or reduced against the parent protein; the word gives no strength.
# Tests used:
# [1] = molecular target: extracellular domain of mouse ICAM-1 (a.a. 28-485, polyhistidine-tagged), biotinylated, monomeric (mouse) (UniProt P13597); assay: cell adhesion to coated plates; 96-well plates coated with streptavidin, then increasing concentrations of biotinylated ICAM-1; CTV-labelled OT-1 CTLs in PBS with 0.5% BSA, 2 mM MgCl2, 1 mM CaCl2; 20 min at 37 °C; washed; bound cells read by fluorimetry; talin-depleted CTLs re-expressing the talin head; only the target purified
# [2] = molecular target: extracellular domain of mouse ICAM-1 (a.a. 28-485, polyhistidine-tagged), biotinylated, monomeric (mouse) (UniProt P13597); assay: DNA hairpin molecular tension probes (MTP), fluorescence imaging; biotinylated ICAM-1 (5 µg/mL) held by streptavidin on Cy3B/BHQ-2 DNA hairpin probes (unwinding at 4.7 pN) on glass, beside pMHC probes; OT-1 CTLs added in complete RPMI with IL-2; imaged for 30 min; CTLs with control or talin gRNA ± talin head in Figs. 6 and 8; only the target purified
# [3] = molecular target: dimeric Fc-ICAM-1, biotinylated (UniProt P13597); assay: as above
# [4] = molecular target: extracellular domain of mouse ICAM-1 (a.a. 28-485, polyhistidine-tagged), biotinylated, monomeric (mouse) (UniProt P13597); assay: cell adhesion to coated plates; as a2, but OT-1 Cas9 CTLs depleted of talin by CRISPR (TlnCR); only the target purified
substance,measurement,setting,value
"LFA-1 (lymphocyte function-associated antigen 1), integrin αLβ2 (from UniProt P24063 24-1162; P11835 24-771) (receptor)",binding,[1],binds
same,binding,[2],binds
same,binding,[3],binds
same,binding,[4],binds weakly
